According to patent US20230312744A1, “Modulatory Substance of Tumor Immune Microenvironment, and Preventive, Diagnostic and/or Therapeutic Utilization of the Same” (The University Of Tokyo, priority 2020, published 2023):
No constants are given. Whether binding was seen depends on the method and setting. In cells and extracts the contact can be indirect. Some entries that bind do so weakly or less than the wild type. Where a sequence is shown, tags or fusion partners need not be part of it.

Chains of the proteins cited; added tags and fusions are not shown.
UniProt O60603: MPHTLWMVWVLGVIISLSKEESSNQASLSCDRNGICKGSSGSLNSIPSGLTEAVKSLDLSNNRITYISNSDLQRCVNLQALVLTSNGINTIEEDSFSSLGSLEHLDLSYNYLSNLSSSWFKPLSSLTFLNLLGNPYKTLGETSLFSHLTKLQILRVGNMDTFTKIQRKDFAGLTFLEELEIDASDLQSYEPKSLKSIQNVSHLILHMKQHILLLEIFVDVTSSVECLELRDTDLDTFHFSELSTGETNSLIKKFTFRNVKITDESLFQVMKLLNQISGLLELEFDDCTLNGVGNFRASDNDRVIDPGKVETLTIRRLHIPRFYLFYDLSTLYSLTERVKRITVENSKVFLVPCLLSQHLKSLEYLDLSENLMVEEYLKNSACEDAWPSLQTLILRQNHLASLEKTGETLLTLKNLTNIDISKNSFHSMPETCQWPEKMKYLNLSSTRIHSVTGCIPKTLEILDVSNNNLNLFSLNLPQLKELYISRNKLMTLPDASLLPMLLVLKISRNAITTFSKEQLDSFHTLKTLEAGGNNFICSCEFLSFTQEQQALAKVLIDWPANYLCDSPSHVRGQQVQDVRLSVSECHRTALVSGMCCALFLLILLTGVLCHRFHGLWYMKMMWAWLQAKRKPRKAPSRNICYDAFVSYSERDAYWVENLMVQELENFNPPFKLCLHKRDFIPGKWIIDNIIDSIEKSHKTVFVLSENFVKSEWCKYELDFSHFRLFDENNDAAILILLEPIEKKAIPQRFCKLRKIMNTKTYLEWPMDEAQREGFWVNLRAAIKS

Biological target: TLR2-YFP (pcDNA3.1-hTLR2-YFP) (human) (UniProt O60603)
Assay: co-immunoprecipitation from HEK293T lysate with anti-GFP antibody, blot with anti-FLAG antibody

B1: Flag-TCTP (pCXNII-FLAG-hTCTP) (ligand, human, UniProt P13693 1-172, looked up, not shown: small tags and cut ends)
chain: MIIYRDLISHDEMFSDIYKIREIADGLCLEVEGKMVSRTEGNIDDSLIGGNASAEGPEGEGTESTVITGVDIVMNHHLQETSFTKEAYKKYIKDYMKSIKGKLEEQRPERVKPFMTGAAEQIKHILANFKNYQFFIGENMNPDGMVALLDYREDGVTPYMIFFKDGLEMEKC
  binding: binds
